Tested on: RBE4-WT and RBE4-MDR1-EGFP cocultures
Assay: Intracellular distribution of doxorubicin in RBE4-WT and -MDR1-EGFP cocultures (live-cell confocal imaging)
Assay type: cell-based, rat
Settings: doxorubicin 10 µM, 30 min

COc1cccc2c1C(=O)c1c(O)c3c(c(O)c1C2=O)C[C@@](O)(C(=O)CO)C[C@@H]3O[C@H]1C[C@H](N)[C@H](O)[C@H](C)O1 [doxorubicin]
intracellular distribution (RBE4-MDR1-EGFP cells in coculture): trapped in endolysosomal vesicles | intracellular distribution (RBE4-WT cells in coculture): bound to cell nuclei

Source: publication PMC8330100, “Similarities and differences in the localization, trafficking, and function of P-glycoprotein in MDR1-EGFP-transduced rat versus human brain capillary endothelial cell lines” (Fluids and Barriers of the CNS, 2021)
